Our source for the log2 fold change values is the supplement of paper PMC12819154, “High-throughput peptide-centric local stability assay extends protein–ligand identification to membrane proteins, tissues and bacteria” (Nature Structural & Molecular Biology, 2025).

Protein sequences, listed by entry. Tags and fused reporters are not part of them. Lines headed by an entry give the natural chain unless they say otherwise; changes in a name come on top.
UniProt Q00056: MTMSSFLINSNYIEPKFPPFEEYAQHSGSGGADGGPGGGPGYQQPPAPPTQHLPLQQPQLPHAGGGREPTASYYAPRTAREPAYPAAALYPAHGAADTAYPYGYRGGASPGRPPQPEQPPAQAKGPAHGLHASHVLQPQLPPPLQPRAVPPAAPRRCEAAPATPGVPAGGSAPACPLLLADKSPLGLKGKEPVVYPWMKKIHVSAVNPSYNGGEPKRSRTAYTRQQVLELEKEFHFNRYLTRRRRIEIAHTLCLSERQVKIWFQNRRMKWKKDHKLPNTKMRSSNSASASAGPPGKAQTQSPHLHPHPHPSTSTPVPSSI
UniProt Q13107: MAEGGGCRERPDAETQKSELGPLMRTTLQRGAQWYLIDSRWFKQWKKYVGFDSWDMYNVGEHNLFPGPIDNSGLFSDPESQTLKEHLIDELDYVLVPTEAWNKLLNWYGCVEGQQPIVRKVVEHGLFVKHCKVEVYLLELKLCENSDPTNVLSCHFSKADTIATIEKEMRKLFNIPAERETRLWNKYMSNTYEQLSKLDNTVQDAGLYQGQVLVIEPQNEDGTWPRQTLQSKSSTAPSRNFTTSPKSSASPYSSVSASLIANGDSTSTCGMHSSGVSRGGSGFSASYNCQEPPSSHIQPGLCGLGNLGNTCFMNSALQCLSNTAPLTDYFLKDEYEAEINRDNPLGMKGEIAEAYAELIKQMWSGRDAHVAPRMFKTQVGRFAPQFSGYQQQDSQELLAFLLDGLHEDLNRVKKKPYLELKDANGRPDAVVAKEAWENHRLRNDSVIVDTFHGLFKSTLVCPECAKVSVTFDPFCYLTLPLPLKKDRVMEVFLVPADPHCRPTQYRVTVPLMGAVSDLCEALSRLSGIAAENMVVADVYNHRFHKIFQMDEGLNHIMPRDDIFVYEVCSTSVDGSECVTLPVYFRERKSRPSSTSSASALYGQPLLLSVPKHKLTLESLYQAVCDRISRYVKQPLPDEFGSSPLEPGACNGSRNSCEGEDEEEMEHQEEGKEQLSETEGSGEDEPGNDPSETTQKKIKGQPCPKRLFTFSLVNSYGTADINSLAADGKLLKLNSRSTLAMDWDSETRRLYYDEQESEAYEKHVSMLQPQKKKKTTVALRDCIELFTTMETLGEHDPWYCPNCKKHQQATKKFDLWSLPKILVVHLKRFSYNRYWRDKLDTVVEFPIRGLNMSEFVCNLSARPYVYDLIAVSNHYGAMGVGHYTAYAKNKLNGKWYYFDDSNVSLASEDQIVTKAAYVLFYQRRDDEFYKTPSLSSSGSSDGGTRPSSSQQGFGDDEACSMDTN
UniProt Q08117: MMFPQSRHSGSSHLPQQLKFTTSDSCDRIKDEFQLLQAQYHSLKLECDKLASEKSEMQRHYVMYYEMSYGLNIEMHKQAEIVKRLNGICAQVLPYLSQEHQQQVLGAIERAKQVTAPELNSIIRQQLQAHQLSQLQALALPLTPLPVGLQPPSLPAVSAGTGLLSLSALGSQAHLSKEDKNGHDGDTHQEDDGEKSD
UniProt Q00534, whole entry: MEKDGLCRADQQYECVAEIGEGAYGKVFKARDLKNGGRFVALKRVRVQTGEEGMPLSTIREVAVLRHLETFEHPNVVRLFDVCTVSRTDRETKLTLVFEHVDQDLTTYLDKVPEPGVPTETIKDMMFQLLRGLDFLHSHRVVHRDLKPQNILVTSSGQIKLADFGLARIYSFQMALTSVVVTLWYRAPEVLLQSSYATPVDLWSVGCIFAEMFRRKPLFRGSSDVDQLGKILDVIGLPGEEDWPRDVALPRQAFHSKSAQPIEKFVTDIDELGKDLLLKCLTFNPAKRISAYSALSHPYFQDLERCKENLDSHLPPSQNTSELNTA
UniProt Q12792, whole entry: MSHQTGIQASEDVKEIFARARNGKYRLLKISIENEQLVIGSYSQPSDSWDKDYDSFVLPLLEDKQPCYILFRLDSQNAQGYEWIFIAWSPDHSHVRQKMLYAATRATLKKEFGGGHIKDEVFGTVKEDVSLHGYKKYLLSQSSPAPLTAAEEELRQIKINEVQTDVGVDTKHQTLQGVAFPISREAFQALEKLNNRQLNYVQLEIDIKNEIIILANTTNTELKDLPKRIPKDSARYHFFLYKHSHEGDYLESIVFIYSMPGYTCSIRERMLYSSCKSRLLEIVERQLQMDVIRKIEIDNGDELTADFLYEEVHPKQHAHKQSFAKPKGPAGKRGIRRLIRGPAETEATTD
UniProt Q01804: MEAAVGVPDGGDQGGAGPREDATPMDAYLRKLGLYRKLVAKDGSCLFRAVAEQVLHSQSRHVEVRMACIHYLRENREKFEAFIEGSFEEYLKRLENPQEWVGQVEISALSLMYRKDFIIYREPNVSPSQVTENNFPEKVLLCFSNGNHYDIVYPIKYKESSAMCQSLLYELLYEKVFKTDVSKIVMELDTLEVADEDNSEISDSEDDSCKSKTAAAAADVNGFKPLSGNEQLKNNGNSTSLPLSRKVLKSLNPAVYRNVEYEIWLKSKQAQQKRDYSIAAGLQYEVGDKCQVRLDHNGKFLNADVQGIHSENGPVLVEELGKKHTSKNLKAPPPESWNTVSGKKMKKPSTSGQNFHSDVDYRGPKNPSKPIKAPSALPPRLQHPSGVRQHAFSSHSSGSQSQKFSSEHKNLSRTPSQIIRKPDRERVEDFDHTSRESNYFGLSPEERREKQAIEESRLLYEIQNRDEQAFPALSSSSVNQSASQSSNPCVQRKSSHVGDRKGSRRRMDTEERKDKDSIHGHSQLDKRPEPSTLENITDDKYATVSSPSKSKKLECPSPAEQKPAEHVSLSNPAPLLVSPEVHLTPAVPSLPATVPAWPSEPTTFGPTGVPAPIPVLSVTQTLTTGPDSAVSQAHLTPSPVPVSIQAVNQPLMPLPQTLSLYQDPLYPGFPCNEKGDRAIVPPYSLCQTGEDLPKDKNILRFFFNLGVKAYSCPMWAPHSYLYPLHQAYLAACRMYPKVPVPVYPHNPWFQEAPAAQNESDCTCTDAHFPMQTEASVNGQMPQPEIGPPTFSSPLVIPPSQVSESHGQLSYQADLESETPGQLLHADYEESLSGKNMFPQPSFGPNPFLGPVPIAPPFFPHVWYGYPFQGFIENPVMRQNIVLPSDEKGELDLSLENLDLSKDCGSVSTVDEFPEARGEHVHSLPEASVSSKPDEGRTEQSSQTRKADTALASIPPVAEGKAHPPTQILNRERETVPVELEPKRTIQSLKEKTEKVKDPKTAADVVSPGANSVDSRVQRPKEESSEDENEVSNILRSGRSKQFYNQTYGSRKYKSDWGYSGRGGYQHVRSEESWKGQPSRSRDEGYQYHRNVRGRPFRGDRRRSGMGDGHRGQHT
UniProt Q09019: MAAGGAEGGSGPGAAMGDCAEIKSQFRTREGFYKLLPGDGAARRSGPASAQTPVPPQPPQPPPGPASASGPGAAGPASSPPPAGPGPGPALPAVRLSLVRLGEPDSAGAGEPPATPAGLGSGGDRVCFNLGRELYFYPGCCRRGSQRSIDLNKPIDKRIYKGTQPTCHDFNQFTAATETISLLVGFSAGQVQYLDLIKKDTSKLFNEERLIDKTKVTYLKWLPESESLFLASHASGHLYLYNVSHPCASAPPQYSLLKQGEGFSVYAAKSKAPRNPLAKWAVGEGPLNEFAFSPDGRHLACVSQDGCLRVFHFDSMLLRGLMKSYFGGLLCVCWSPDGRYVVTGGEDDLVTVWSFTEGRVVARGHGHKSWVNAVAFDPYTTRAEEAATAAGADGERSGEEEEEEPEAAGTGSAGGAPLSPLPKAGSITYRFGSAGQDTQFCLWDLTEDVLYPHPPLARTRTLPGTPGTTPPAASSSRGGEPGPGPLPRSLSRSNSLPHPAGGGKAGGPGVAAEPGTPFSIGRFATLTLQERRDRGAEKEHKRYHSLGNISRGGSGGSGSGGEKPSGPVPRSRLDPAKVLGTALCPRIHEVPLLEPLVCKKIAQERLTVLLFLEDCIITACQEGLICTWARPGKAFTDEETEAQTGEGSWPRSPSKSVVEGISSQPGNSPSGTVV
UniProt Q05639, whole entry: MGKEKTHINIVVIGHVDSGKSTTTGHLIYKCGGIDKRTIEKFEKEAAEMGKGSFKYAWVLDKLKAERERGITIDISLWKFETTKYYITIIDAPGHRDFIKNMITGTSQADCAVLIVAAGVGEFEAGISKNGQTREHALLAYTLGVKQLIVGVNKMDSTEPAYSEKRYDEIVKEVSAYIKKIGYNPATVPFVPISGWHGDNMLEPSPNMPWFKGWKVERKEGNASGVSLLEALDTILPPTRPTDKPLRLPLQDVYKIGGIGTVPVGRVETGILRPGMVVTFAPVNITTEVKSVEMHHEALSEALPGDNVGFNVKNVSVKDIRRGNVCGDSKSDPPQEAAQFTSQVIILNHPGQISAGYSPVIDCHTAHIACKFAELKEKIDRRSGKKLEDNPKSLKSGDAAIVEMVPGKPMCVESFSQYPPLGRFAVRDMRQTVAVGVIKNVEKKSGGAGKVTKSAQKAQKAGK
UniProt Q12980: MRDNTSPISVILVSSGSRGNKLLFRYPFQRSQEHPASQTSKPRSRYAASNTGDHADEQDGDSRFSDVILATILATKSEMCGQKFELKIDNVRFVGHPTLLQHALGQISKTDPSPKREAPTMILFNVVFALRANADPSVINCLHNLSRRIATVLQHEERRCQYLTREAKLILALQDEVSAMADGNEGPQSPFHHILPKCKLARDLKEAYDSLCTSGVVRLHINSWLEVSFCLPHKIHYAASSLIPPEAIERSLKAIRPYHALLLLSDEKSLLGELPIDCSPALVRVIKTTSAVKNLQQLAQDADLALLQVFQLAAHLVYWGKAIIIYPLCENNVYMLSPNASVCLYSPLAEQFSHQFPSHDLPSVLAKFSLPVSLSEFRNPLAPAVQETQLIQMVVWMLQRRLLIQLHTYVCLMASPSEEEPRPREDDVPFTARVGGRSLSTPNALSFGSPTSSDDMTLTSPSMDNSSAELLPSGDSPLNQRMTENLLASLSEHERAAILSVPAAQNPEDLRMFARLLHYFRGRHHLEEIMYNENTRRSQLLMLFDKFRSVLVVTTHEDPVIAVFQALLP
UniProt Q12982: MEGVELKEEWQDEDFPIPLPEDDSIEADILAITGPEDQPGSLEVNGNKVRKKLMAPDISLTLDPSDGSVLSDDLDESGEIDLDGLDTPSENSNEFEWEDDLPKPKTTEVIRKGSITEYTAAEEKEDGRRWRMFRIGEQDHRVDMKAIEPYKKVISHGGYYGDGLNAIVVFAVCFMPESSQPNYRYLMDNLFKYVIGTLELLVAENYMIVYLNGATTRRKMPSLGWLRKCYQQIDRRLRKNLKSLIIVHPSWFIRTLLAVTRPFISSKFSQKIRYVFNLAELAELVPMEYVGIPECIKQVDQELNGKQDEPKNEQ
UniProt Q01844: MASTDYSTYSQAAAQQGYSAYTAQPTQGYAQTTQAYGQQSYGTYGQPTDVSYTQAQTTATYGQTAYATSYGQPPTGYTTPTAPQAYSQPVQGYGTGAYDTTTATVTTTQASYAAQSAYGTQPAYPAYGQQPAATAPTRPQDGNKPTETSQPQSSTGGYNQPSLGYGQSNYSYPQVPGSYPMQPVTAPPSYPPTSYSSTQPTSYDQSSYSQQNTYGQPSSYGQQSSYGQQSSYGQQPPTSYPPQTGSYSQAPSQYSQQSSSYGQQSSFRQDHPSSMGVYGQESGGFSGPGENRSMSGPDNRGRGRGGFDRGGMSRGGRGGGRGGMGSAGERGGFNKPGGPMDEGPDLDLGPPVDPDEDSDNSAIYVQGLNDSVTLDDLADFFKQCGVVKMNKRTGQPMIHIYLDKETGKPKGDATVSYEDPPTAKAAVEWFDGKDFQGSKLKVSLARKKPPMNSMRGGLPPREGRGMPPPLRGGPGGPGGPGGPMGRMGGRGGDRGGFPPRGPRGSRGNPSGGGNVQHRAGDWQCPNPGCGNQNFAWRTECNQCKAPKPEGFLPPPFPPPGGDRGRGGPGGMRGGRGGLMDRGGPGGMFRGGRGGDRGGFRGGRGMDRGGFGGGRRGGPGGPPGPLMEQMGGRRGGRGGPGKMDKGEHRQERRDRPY
UniProt Q07812, whole entry: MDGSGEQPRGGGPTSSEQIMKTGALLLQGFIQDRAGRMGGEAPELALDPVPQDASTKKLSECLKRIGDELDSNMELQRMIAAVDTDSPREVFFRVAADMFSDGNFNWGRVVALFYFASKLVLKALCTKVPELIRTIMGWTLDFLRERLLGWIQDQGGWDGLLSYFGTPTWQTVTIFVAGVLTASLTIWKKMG
UniProt Q01105, whole entry: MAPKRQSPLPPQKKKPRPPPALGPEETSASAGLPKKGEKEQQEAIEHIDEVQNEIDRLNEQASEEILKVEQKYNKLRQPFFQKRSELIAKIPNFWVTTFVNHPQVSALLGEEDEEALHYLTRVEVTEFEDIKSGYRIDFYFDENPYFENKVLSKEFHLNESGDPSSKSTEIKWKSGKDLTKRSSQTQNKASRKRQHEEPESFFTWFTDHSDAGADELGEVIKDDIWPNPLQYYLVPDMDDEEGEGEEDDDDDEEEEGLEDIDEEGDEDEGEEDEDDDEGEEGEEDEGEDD

Some of the results follow. Most values lie at the level of the controls, where differences are scatter.

Compound in this assay: CN[C@@H]1C[C@H]2O[C@@](C)([C@@H]1OC)n1c3ccccc3c3c4c(c5c6ccccc6n2c5c31)C(=O)NC4 [staurosporine]
The assay is described as follows: log2 fold change of tryptic peptide abundance, ligand vs vehicle (limited proteolysis) (log2 ratio); higher = more trypsin-susceptible (destabilized). Particulars: ligand concentration: 20 uM; sample: K562 cleared lysate; digestion: 4 min, 22 C (HT-PELSA RT4min, Orbitrap Astral).
For the target “OCRL (peptide sequence: FEIPDEEHCLK, peptide start residue: 96) (UniProt Q01968)”, the log2 fold change is -0.679. To “PPID (peptide sequence: EGLLSMANAGR, peptide start residue: 115) (UniProt Q08752)” belongs -0.632; to “AMPD2 (peptide sequence: HFPLDLR, peptide start residue: 110) (UniProt Q01433)”, 0.106; to “UniProt Q00056 (peptide sequence: DHKLPNTK, peptide start residue: 220)”, 0.246. For the target “UniProt Q0P6D6 (peptide sequence: DQNFLSR, peptide start residue: 476)”, the log2 fold change is -0.232. To “RLF (peptide sequence: TSDISSPIGSHREEQEGR, peptide start residue: 1268) (UniProt Q13129)” belongs 0.843. As for “UniProt Q08050 (peptide sequence: HNLSLHDMFVR, peptide start residue: 287)”, the figure is 0.448. As for “REST (peptide sequence: KPSNNVSVIQVTTR, peptide start residue: 478) (UniProt Q13127)”, the figure is -0.576; as for “USP4 (peptide sequence: RDDEFYK, peptide start residue: 923) (UniProt Q13107)”, 0.612; as for “STX4 (peptide sequence: NILSSADYVER, peptide start residue: 244) (UniProt Q12846)”, -0.146. With “RBM10 (peptide sequence: RESATADAGYAILEK, peptide start residue: 685) (UniProt P98175)”, the log2 fold change was -0.58.

Take “ALDH6A1 (peptide sequence: TLADAEGDVFR, peptide start residue: 130) (UniProt Q02252)”: the log2 fold change came out at 0.467. Turning to “TP53BP1 (peptide sequence: MESLSSHR, peptide start residue: 528) (UniProt Q12888)”, the log2 fold change came to 0.258.

As to “UniProt Q08117 (peptide sequence: FTTSDSCDR, peptide start residue: 20)”, the log2 fold change was -0.144. To “GFPT1 (peptide sequence: GYDVDFPR, peptide start residue: 683) (UniProt Q06210)” belongs -0.232; to “RPL18 (peptide sequence: MKLPGRENK, peptide start residue: 70) (UniProt Q07020)”, 0.49; to “CDK6 (peptide sequence: DMMFQLLR, peptide start residue: 124) (UniProt Q00534)”, -0.296. As for “CENPE (peptide sequence: ANLSLPYLQTK, peptide start residue: 2140) (UniProt Q02224)”, the figure is 0.667; as for “TWF1 (peptide sequence: HQTLQGVAFPISR, peptide start residue: 172) (UniProt Q12792)”, 0.254; as for “XPC (peptide sequence: GCSHPGGSADGPAKK, peptide start residue: 59) (UniProt Q01831)”, 0.718. Regarding “ATP7A (peptide sequence: ASINSLLSDKR, peptide start residue: 1462) (UniProt Q04656)”, the log2 fold change worked out at 0.737. For the target “OTUD4 (peptide sequence: NVEYEIWLK, peptide start residue: 258) (UniProt Q01804)”, the log2 fold change was -0.16.

Consider “CTDSPL2 (peptide sequence: EHCVCVQGNYIK, peptide start residue: 377) (UniProt Q05D32)”, for which the log2 fold change was -0.527. As for “UniProt Q03164 (peptide sequence: VKTQGQDSLEAQLSSLESSRR, peptide start residue: 2789)”, the figure is -0.36. As to “DMWD (peptide sequence: AEEAATAAGADGER, peptide start residue: 383) (UniProt Q09019)”, the log2 fold change was -0.524. To “EEF1A2 (peptide sequence: GITIDISLWKFETTK, peptide start residue: 70) (UniProt Q05639)” belongs 0.239; to “TJP1 (peptide sequence: FLKPVELR, peptide start residue: 1707) (UniProt Q07157)”, 0.224.

“UniProt Q12980 (peptide sequence: GRHHLEEIMYNENTR, peptide start residue: 522)”: the log2 fold change is 0.84.

For “GALNT2 (peptide sequence: NFYYAAVPSAR, peptide start residue: 394) (UniProt Q10471)”, the log2 fold change is -0.241. For “BNIP2 (peptide sequence: YLMDNLFK, peptide start residue: 185) (UniProt Q12982)”, the log2 fold change is 0.21. As for “UniProt Q03112 (peptide sequence: GSSESPFDLTTK, peptide start residue: 736)”, the figure is 0.365; as for “EWSR1 (peptide sequence: AAVEWFDGKDFQGSK, peptide start residue: 425) (UniProt Q01844)”, -0.14.

As for “UniProt Q0P5N6 (peptide sequence: EGTGLAGVLAWLQATHR, peptide start residue: 178)”, the log2 fold change was -0.206. As for “UniProt P98077 (peptide sequence: HLLLVDPEGVVR, peptide start residue: 532)”, the figure is 0.0043. To “BAX (peptide sequence: GGGPTSSEQIMK, peptide start residue: 10) (UniProt Q07812)” belongs 0.941. As for “UniProt Q13118 (peptide sequence: SHICSHPGCGK, peptide start residue: 368)”, the figure is -0.509; as for “KIF1A (peptide sequence: KTDFIPYR, peptide start residue: 300) (UniProt Q12756)”, 0.505. In the case of “BCL2L1 (peptide sequence: EAGDEFELR, peptide start residue: 92) (UniProt Q07817)”, the log2 fold change was -0.11. As for “GTF3C1 (peptide sequence: ERDCESVCFIGRPWR, peptide start residue: 1974) (UniProt Q12789)”, the figure is -0.241; as for “SET (peptide sequence: SGKDLTKR, peptide start residue: 175) (UniProt Q01105)”, 0.213.
